# Measured values: patent US20160060234A1, “CYSTEINE DERIVATIVE” (AJINOMOTO CO., INC., priority 2010, published 2016)
# Some compounds share one wording; it may come from a single statement.
# Assay: Odor test (sulfur odor, 6 panelists)
# Details: 70° C.; for odor evaluation at pH 4 (day 4), total points of 6 panelists / odor evaluation at pH 4 (day 6), total points of 6 panelists / odor evaluation at pH 4 (day 6), grade / odor evaluation at pH 4 (day 4), grade: 1 wt % aqueous solution pH 4, sealed; for odor evaluation at pH 4 (day 4), total points of 6 panelists / odor evaluation at pH 4 (day 6), total points of 6 panelists / odor evaluation at pH 7 (day 4), total points of 6 panelists / odor evaluation at pH 7 (day 6), total points of 6 panelists: 3 points = no sulfur odor, 0 = strong
# Procedure: 1 wt % Aqueous solutions (pH 4 or 7) of the cysteine derivatives of Synthetic Examples 10, 33, and 37, CP obtained in Reference Example 1, and CP2Et obtained in Reference Example 2 were prepared, tightly sealed, and preserved in a thermostatic tank at 70° C. for 4 days or 6 days. Each sample was taken out from the thermostatic tank, immediately thereafter smelled for odor by 6 panelists, and evaluated by the following criteria.
# 3 points: no sulfur odor was detected at all 2 points: slight sulfur odor was detected 1 point: sulfur odor was detected 0 point: strong sulfur odor was detected
# The results of the 6 panelists were totaled, and the total points were evaluated as ⊚: not less than 15 points, ◯: not less than 10 points and less than 15 points, Δ: not less than 5 points and less than 10 points, x: not less than 0 point and less than 5 points.
# [1] = 1 wt % aqueous solution pH 7, sealed, 4 days
# [2] = 1 wt % aqueous solution pH 7, sealed, 6 days
Structure (SMILES),"odor evaluation at pH 4 (day 4), total points of 6 panelists (4 days) [points]","odor evaluation at pH 4 (day 6), total points of 6 panelists (6 days) [points]","odor evaluation at pH 7 (day 4), total points of 6 panelists [1] [points]","odor evaluation at pH 7 (day 6), total points of 6 panelists [2] [points]","odor evaluation at pH 4 (day 6), grade (6 days)","odor evaluation at pH 4 (day 4), grade (4 days)","odor evaluation at pH 7 (day 4), grade [1]","odor evaluation at pH 7 (day 6), grade [2]"
"CCOC(=O)C1(C)NC(C(=O)O)CS1 (stereo not shown) [CP2Et, 2-methylthiazolidine-2,4-dicarboxylic acid 2-ethyl ester, reference compound]",3,1,3,1,,,,
"CC1(C(=O)O)NC(C(=O)O)CS1 (stereo not shown) [CP, 2-methylthiazolidine-2,4-dicarboxylic acid, reference compound]",6,7,,,Δ (not less than 5 points and less than 10 points),,,
"CCOC(=O)C1(C)SCC(C(=O)O)N1C(C)=O (stereo not shown) [Synthetic Example 10, N-acetyl-2-methylthiazolidine-2,4-dicarboxylic acid 2-ethyl ester]",10,8,18,17,Δ (not less than 5 points and less than 10 points),◯ (not less than 10 points and less than 15 points),,
"CCOC(=O)C1SCC(C(=O)O)N1C(C)=O (stereo not shown) [Synthetic Example 33, N-acetylthiazolidine-2,4-dicarboxylic acid 2-ethyl ester]",16,15,18,17,,,,
"COC(=O)C1CSC(C(=O)OC)N1C(C)=O (stereo not shown) [Synthetic Example 37, N-acetylthiazolidine-2,4-dicarboxylic acid 2,4-dimethyl ester]",10,9,12,9,Δ (not less than 5 points and less than 10 points),◯ (not less than 10 points and less than 15 points),◯ (not less than 10 points and less than 15 points),Δ (not less than 5 points and less than 10 points)
